Reference: PubChem BioAssay AID328 (DTP/NCI, 2004)
The list is a part of this screen's results and no random one: it is rich in T/C values a quarter to a half above the control, in often repeated tests (any T/C) and in doses without a T/C. Further doses and runs are listed elsewhere. T/C: endpoint of the treated group in % of that of the vehicle group. Some entries give survivors of the animals treated and no T/C: the source files T/C as zero there, which appears to mark a toxic dose or a test without result, not a measured value. Some survivor counts are full or nearly so, which does not show that the dose was tolerated: the source hardly ever lists a survival T/C far under the control, and the zero likely stands for such cases as well. Survivors were counted at the toxicity check, usually on the fifth day, unless a day is given; later deaths do not show. Schedule codes are those of the source, taken here to give the interval after Q, in days (D) or hours (H), and the number of doses after X. Some structures stand for samples that the source files as different forms (salt, stereo form or complex); doses refer to the form tested. Some entries hold several experiments; the results are listed from low to high. For survival time, this PubChem deposit counts one and a half times the control or more as active, and values a quarter to a half above the control carry no call in these data; other NCI protocols may use other cut-offs. Marks such as (2×) say how often a value occurs here.

System: BDF1 mice, P388 leukemia ip, median survival T/C
Assay: NCI In Vivo Anticancer Drug Screen. Data for tumor model P388 Leukemia (intraperitoneal) in B6D2F1 (BDF1) mice
Conditions: T/C endpoint: median survival time, higher T/C = longer survival
Summary of the method: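 Mice carrying the transplantable tumour receive compound or vehicle. Survival is followed in each arm, and the treated measure is divided by the vehicle measure.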

[1] = dose: 200.0 mg/kg/injection, schedule: Q01DX009 (ip), vehicle: saline with Tween-80
[2] = dose: 200.0 mg/kg/injection, schedule: Q01DX001 (ip), vehicle: saline
[3] = dose: 200.0 mg/kg/injection, schedule: Q04DX003 (ip), vehicle: saline with Tween-80

COc1cc([C@@H]2c3cc4c(cc3[C@H](O)[C@H]3COC(=O)[C@H]23)OCO4)cc(OC)c1OC
T/C (dose: 1.0 mg/kg/injection, schedule: Q01DX010 (ip), vehicle: carboxymethylcellulose (CMC)): 133 % of control (2×)
T/C (dose: 2.0 mg/kg/injection, schedule: Q01DX010 (ip), vehicle: carboxymethylcellulose (CMC)): 142 % of control
T/C (dose: 2.0 mg/kg/injection, schedule: Q01DX010 (ip), vehicle: steroid suspending solution): 127 % of control
survivor count (dose: 4.0 mg/kg/injection, schedule: Q01DX010 (ip), vehicle: carboxymethylcellulose (CMC)): 4 of 6
T/C (dose: 4.0 mg/kg/injection, schedule: Q01DX010 (ip), vehicle: steroid suspending solution): 140 % of control
T/C (dose: 4.5 mg/kg/injection, schedule: Q01DX001 (ip), vehicle: other): 126 % of control
survivor count (dose: 8.0 mg/kg/injection, schedule: Q01DX010 (ip), vehicle: carboxymethylcellulose (CMC)): 0 of 6 and 3 of 6
T/C (dose: 8.0 mg/kg/injection, schedule: Q01DX010 (ip), vehicle: steroid suspending solution): 136 % of control
survivor count (dose: 16.0 mg/kg/injection, schedule: Q01DX010 (ip), vehicle: carboxymethylcellulose (CMC)): 1 of 6
T/C (dose: 18.0 mg/kg/injection, schedule: Q01DX001 (ip), vehicle: other): 126 % of control
survivor count (dose: 18.0 mg/kg/injection, schedule: Q01DX010 (ip), vehicle: other): 4 of 6

O=C1c2cc(Cl)ccc2-c2c(NC(=O)C(Cl)Cl)cc(Cl)cc21
survivor count (dose: 100.0 mg/kg/injection, schedule: Q01DX009 (ip), vehicle: saline with Tween-80): 6 of 6
survivor count [1]: 5 of 6
survivor count (dose: 400.0 mg/kg/injection, schedule: Q01DX009 (ip), vehicle: saline with Tween-80): 6 of 6

Nc1nc(N)c2c(ccc3c2ccn3Cc2cccc([N+](=O)[O-])c2)n1
survivor count (dose: 50.0 mg/kg/injection, schedule: Q01DX005 (ip), vehicle: saline with Tween-80): 4 of 5
survivor count (dose: 100.0 mg/kg/injection, schedule: Q01DX005 (ip), vehicle: saline with Tween-80): 0 of 5
survivor count (dose: 200.0 mg/kg/injection, schedule: Q01DX005 (ip), vehicle: saline with Tween-80): 0 of 5

NNc1cccc(C(F)(F)F)c1
survivor count (dose: 12.5 mg/kg/injection, schedule: Q01DX009 (ip), vehicle: saline with Tween-80): 6 of 6
survivor count (dose: 25.0 mg/kg/injection, schedule: Q01DX009 (ip), vehicle: saline with Tween-80): 6 of 6
survivor count (dose: 50.0 mg/kg/injection, schedule: Q01DX009 (ip), vehicle: saline with Tween-80): 6 of 6

c1ccc2c(c1)CC1CCCCN1C2 (configuration not stated)
survivor count (dose: 75.0 mg/kg/injection, schedule: Q01DX009 (ip), vehicle: Klucel (hydroxypropylcellulose) (HPC)): 5 of 6
survivor count (dose: 75.0 mg/kg/injection, schedule: Q01DX009 (ip), vehicle: saline): 4 of 6
survivor count (dose: 115.0 mg/kg/injection, schedule: Q01DX009 (ip), vehicle: Klucel (hydroxypropylcellulose) (HPC)): 0 of 6
survivor count (dose: 115.0 mg/kg/injection, schedule: Q01DX009 (ip), vehicle: saline): 0 of 6
survivor count (dose: 150.0 mg/kg/injection, schedule: Q04DX003 (ip), vehicle: saline): 0 of 6
survivor count (dose: 170.0 mg/kg/injection, schedule: Q01DX009 (ip), vehicle: Klucel (hydroxypropylcellulose) (HPC)): 0 of 6
survivor count (dose: 170.0 mg/kg/injection, schedule: Q01DX009 (ip), vehicle: saline): 0 of 6

CCCCCCCCCSC(=S)N(C)NC(=O)c1ccccn1
survivor count [1]: 0 of 6

COC(=O)/C(N=Nc1cccc(C)c1)=C(\C)O
survivor count [1]: 6 of 6

Cc1cc(O)c2c(c1)C(c1ccc3cc4c(c(O)c3c1O)C(=O)CC(C)(O)C4)c1cccc(O)c1C2=O (configuration not stated)
survivor count (dose: 1.56 mg/kg/injection, schedule: Q01DX009 (ip), vehicle: olive oil, sesame oil, peanut oil): 6 of 6
survivor count (dose: 3.12 mg/kg/injection, schedule: Q01DX009 (ip), vehicle: olive oil, sesame oil, peanut oil): 6 of 6
survivor count (dose: 6.25 mg/kg/injection, schedule: Q01DX009 (ip), vehicle: olive oil, sesame oil, peanut oil): 6 of 6
survivor count (dose: 12.5 mg/kg/injection, schedule: Q01DX009 (ip), vehicle: olive oil, sesame oil, peanut oil): 6 of 6
survivor count (dose: 25.0 mg/kg/injection, schedule: Q01DX009 (ip), vehicle: olive oil, sesame oil, peanut oil): 1 of 6
survivor count (dose: 50.0 mg/kg/injection, schedule: Q01DX009 (ip), vehicle: olive oil, sesame oil, peanut oil): 2 of 6

Cn1cnc([N+](=O)[O-])c1S(=O)(=O)NCN1CCOCC1
T/C (dose: 25.0 mg/kg/injection, schedule: Q01DX009 (ip), vehicle: Klucel (hydroxypropylcellulose) (HPC)): 129 % of control

C=Cc1ccccc1-c1ccccc1C(=O)OC
survivor count (dose: 100.0 mg/kg/injection, schedule: Q04DX003 (ip), vehicle: saline with Tween-80): 6 of 6

COc1cccc2c1C(=O)c1c(O)c3c(c(O)c1C2=O)C[C@@](O)(C(=O)CO)C[C@@H]3OC1CC([N+](C)(C)C)C(O)C(C)O1 (some centres not stated)
T/C (dose: 8.64 mg/kg/injection, schedule: Q04DX003 (ip), vehicle: water): 129 % of control
T/C (dose: 14.4 mg/kg/injection, schedule: Q04DX003 (ip), vehicle: water): 136 % of control
survivor count (dose: 24.0 mg/kg/injection, schedule: Q04DX003 (ip), vehicle: water): 5 of 8
survivor count (dose: 40.0 mg/kg/injection, schedule: Q04DX003 (ip), vehicle: water): 3 of 8

CC12CCC(O)CC1CCC1C2CCC2(C)C(C3=CC(=O)OC3)CCC12 (configuration not stated)
T/C (dose: 70.0 mg/kg/injection, schedule: Q01DX010 (ip), vehicle: carboxymethylcellulose (CMC)): 127 % of control

CC(=O)C(C)(NCc1ccccc1)c1ccccc1 (configuration not stated)
survivor count (dose: 135.0 mg/kg/injection, schedule: Q01DX001 (ip), vehicle: saline): 6 of 6
T/C [2]: 129 and 131 % of control

CCC1=CC(C(O)CC(C)C)C(C)(Cc2ccc(CC)cn2)NC1c1ccccc1 (configuration not stated)
survivor count (dose: 100.0 mg/kg/injection, schedule: Q04DX002 (ip), vehicle: saline with Tween-80): 3 of 6

CC12CCC(=O)C=C1CCC1C2CCC2(C)C(OP(=O)(N3CC3)N3CC3)CCC12 (configuration not stated)
T/C [3]: 128 % of control
T/C (dose: 400.0 mg/kg/injection, schedule: Q04DX003 (ip), vehicle: saline with Tween-80): 144 % of control

CN1CCC2(CC1)c1ccccc1-c1ccccc12
survivor count [1]: 0 of 6

CN1CCN(C(=O)c2ccc(Cl)c(Cl)c2)CC1
survivor count [3]: 0 of 6

CC(O)C1(O)C(O)CC(OC2c3cc4c(c(O)c3[C@@H]3C[C@@]2(C)OC32C=c3cc[nH]c3=N2)C(=O)c2cccc(O)c2C4=O)OC1C (some centres not stated)
T/C (dose: 4.0 mg/kg/injection, schedule: Q01DX009 (ip), vehicle: saline): 131 and 144 % of control

c1ccc(OP2OCCO2)cc1
survivor count (dose: 50.0 mg/kg/injection, schedule: Q04DX003 (ip), vehicle: saline): 5 of 6

CC(C)CC(B1OCCO1)(C1CCCCC1)C1CCCCC1
survivor count (dose: 100.0 mg/kg/injection, schedule: Q01DX009 (ip), vehicle: other): 6 of 6
survivor count (dose: 200.0 mg/kg/injection, schedule: Q01DX009 (ip), vehicle: other): 6 of 6
survivor count (dose: 400.0 mg/kg/injection, schedule: Q01DX009 (ip), vehicle: other): 6 of 6

COc1cc2c(cc1OC)-c1c(C)c3ccc(OC)c(NCc4ccccc4)c3c[n+]1CC2
survivor count (dose: 12.5 mg/kg/injection, schedule: Q04DX003 (ip), vehicle: other): 4 of 6
survivor count (dose: 25.0 mg/kg/injection, schedule: Q04DX003 (ip), vehicle: other): 0 of 6

CCOc1cc(N2CCOCC2)c(OCC)cc1N
survivor count (dose: 100.0 mg/kg/injection, schedule: Q01DX001 (ip), vehicle: saline): 2 of 6
survivor count [2]: 0 of 6
survivor count (dose: 400.0 mg/kg/injection, schedule: Q01DX001 (ip), vehicle: saline): 0 of 6

COc1ccc(CN(C)CCN(C)CCN(C)Cc2ccc(OC)cc2)cc1
survivor count (dose: 200.0 mg/kg/injection, schedule: Q04DX003 (ip), vehicle: water): 0 of 6
survivor count (dose: 400.0 mg/kg/injection, schedule: Q04DX003 (ip), vehicle: water): 0 of 6

CC(C)(C)NCCC(O)c1cc(C(F)(F)F)nc2c(C(F)(F)F)cccc12 (configuration not stated)
survivor count [1]: 1 of 6
